No constants are given. Whether binding was seen depends on the method and setting. In cells and extracts the contact can be indirect. Binding can be weak; no strength is given.
Molecular target: Axin (endogenous, HEK293T cells) (human (endogenous in HEK293T)) (UniProt O15169)
Experiment: co-IP; endogenous Axin and γ-tubulin in HEK293T cells

Chains of the proteins cited; added tags and fusions are not shown. Lines headed by an entry give the natural chain unless they say otherwise; changes in a name come on top.
UniProt O15169: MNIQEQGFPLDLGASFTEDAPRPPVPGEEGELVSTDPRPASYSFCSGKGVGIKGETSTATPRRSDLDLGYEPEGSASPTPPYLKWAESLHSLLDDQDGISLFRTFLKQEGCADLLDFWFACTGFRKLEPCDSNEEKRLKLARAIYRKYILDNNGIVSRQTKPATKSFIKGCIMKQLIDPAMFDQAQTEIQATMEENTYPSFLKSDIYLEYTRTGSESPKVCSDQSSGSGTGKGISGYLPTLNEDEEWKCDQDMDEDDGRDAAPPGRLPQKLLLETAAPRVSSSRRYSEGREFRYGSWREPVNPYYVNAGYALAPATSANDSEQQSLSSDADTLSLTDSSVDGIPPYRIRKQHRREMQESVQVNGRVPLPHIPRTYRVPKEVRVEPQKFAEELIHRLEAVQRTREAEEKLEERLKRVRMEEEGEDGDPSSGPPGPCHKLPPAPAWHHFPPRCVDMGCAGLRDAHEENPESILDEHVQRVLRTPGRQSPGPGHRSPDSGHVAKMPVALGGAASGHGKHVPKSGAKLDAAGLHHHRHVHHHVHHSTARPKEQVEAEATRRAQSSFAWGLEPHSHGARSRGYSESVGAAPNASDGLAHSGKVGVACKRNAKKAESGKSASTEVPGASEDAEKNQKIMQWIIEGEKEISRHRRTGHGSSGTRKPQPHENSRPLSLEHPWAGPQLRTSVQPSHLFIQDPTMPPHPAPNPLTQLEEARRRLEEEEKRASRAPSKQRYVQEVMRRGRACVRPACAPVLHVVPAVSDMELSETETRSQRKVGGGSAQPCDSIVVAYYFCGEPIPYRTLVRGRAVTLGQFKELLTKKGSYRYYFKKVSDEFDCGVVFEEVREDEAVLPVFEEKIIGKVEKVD
UniProt P23258: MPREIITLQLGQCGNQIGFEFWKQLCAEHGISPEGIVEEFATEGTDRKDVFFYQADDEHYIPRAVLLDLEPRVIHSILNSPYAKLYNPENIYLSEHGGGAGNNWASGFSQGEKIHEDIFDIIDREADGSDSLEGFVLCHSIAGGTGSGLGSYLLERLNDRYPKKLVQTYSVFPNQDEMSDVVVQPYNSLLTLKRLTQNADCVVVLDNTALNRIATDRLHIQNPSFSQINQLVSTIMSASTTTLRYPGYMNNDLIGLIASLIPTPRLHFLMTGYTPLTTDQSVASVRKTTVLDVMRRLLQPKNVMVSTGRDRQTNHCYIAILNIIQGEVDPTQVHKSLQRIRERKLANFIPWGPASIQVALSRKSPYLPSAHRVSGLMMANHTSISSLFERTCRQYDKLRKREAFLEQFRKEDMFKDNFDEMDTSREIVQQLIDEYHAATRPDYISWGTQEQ

γ-tubulin (endogenous, HEK293T cells) (from UniProt P23258)
binding: binds

Source: paper PMC3498349
